For at least one compound, name, drawing or mass did not settle the structure.
Experiments:
Format in all cases: cell-based
[1] = system: Endothelin-1; assay: qRT-PCR Endothelin-1 gene expression in SFA smooth muscle cells, drug then inflammatory cocktail; settings: quiescent SFA smooth muscle cells, FIG. 14D
Method: (§1) FIG. 14 depicts differential effect of paclitaxel versus the Limus family of drugs on expression of cell cycle, proliferation and ECM target genes in SFA smooth muscle cells. Quiescent SFA smooth muscle cells were treated with of Paclitaxel, Zotarolimus or Sirolimus then stimulated with inflammatory cocktail consisting of FBS, TGF Beta and 11—1 beta. Relative gene expression levels were determined by qRT-PCR for each drug treated arm as calibrated against the unstimulated baseline control for (A) BTG2, (B) KLF4, (C) PEDF, (D) Endothelin-1, (E) Thrombospondin-1, and (F) Thrombospondin-3.
In a similar manner, the expression of Thrombospondin-1 and Thrombospondin-3 is inhibited by paciltaxel but not by sirolimus and zotarolimus. Taken together the data with regards to the differential effects of commercially employed, anti-proliferative drugs, such as paciltaxel and drugs of the limus family, on the expression of SFA disease target genes can highlight/point to wards the most beneficial therapeutic mode of application and treatment.

[2] = system: KLF4; assay: qRT-PCR KLF4 gene expression in SFA smooth muscle cells, drug then inflammatory cocktail; settings: quiescent SFA smooth muscle cells, drug then FBS, TGF Beta and IL-1 beta cocktail; calibrated against unstimulated baseline; FIG. 14B
Method: as §1
(§2) Since the limus drugs have been known to affect the signaling via their effect on cell cycle inhibitors (CDKN1A and CDKN1 B), we next studied their effects on the pertinent proliferative disease targets identified in this study. Specifically, we looked at BTG2, KLF4 and PEDF (FIGS. 14A, 14B, and 14C, respectively).

[3] = system: CDKN1A; assay: qRT-PCR CDKN1A gene expression in drug-treated SFA smooth muscle cells; settings: SFA smooth muscle cells from normal donor tissue; qRT-PCR calibrated against unstimulated control; FIG. 13A
Method: FIG. 13 depicts effects of paclitaxel on cellular morphology, gene and protein expression. (A and B) SFA smooth muscle cells from normal donor tissue were treated with Paclitaxel, Everolimus or Sirolimus. Gene expression levels were determined by qRT-PCR for each drug arm calibrated against unstimulated control for (A) CDKN1A and (C) CTGF. (B) SMCs were exposed to Sirolimus or Paclitaxel, fixed and stained with Actin (red) and Ki67 (green). (D) SFA derived smooth muscle cells were treated with Paclitaxel, Everolimus or Sirolimus then stimulated with Colchicinne (CTGF a) or Angiotensin II (CTGF b). Protein levels were detected by western blot using antibodies against CTGF and beta actin. One representative blot of three replicates shown.
Obtaining samples from SFA arteries allowed us to generate SFA derived-smooth muscle cells and to examine the expression of genes of interest as ide12tified in the disease atherectomy samples. In particularly we investigated the transcriptional response to anti-proliferative drugs, e.g. paclitaxel and drugs from the limus family such as sirolimus, everolimus or zotarolimus. These drugs are currently employed in combination devices indicated for the treatment of coronary and peripheral disease, including drug eluting stents and drug eluting balloons. […]

[4] = system: BTG2; assay: qRT-PCR BTG2 gene expression in SFA smooth muscle cells, drug then inflammatory cocktail; settings: quiescent SFA smooth muscle cells, drug then FBS, TGF Beta and IL-1 beta cocktail; calibrated against unstimulated baseline; FIG. 14A
Method: as §1, §2

## CO[C@H]1C[C@@H]2CC[C@@H](C)[C@@](O)(O2)C(=O)C(=O)N2CCCC[C@H]2C(=O)O[C@H]([C@H](C)C[C@@H]2CC[C@@H](O)[C@H](OC)C2)CC(=O)[C@H](C)/C=C(\C)[C@@H](O)[C@@H](OC)C(=O)[C@H](C)C[C@H](C)/C=C/C=C/C=C/1C [sirolimus]
[1]
  expression of Endothelin-1: substantially upregulated
[2]
  expression of KLF4: induced the expression
[3]
  CDKN1A expression: up regulating
[4]
  expression of BTG2: induced the expression
